{"source": "PubChem BioAssay AID504834", "about": "(National Center for Advancing Translational Sciences (NCATS), 2011)", "note": "Hit rate of the full screen: of about 320,000 compounds, about 22,000 (6.9%) were called active. Inconclusive means that the source gave no clear call. Such entries were picked first, then a sample of the others. The call rests on the fitted dose curve; in most records, active means well fitted inhibition curve with a large enough effect; inconclusive means small, poorly fitted or top-dose-only effect, or another doubt; inactive means no such curve, though single readings can be large or run the other way. Potencies of inconclusive entries are doubtful fits and often do not repeat. On the % scale 0 is the no-effect control and ±100 the full control effect; potency means the concentration at half of the fitted maximal effect.", "data": [{"test": "Primary qHTS for delayed death inhibitors of the malarial parasite plastid, 96 hour incubation", "conditions": "P. falciparum luciferase reporter growth; series mostly up to 28.7 µM; activity change, negative = inhibition: at the top concentration", "procedure,_shortened": "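96 h incubation, 37 C, 5% CO2, of luciferase-reporter P. falciparum-infected RBCs (2% hematocrit, 0.05% parasitemia final) with test compounds; endpoint luminescence.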", "values": [{"smiles": "O=C(NNc1nc(-c2ccc(Cl)cc2)cs1)c1ccco1", "Potency": "inconclusive: 2.33 µM [inhibitor, full curve, poor fit]"}, {"smiles": "Cc1cc[n+](-c2nc3ccccc3nc2C(=C=[N-])C#N)cc1", "Potency": "inconclusive: 0.0104 µM [inhibitor, full curve, poor fit]"}, {"smiles": "CCCN1C(=O)/C(=C/c2nc3ccccc3c(=O)[nH]2)c2ccccc21", "Potency": "inconclusive: 18.5 µM [inhibitor, single point]"}, {"smiles": "Cc1cc(C)cc(C(=O)NCC(=O)OCC(=O)NCc2ccco2)c1", "activity change, negative = inhibition": "inactive: 34%"}, {"smiles": "Cc1c([N+](=O)[O-])c2ccc(O)cc2n1-c1ccccc1", "Potency": "inconclusive: 18.5 µM [inhibitor, single point]"}, {"smiles": "CCC(C(=O)Nc1ccc(C(=O)O)cc1NC(=O)C(CC)c1ccccc1)c1ccccc1", "note": "(configuration not stated)", "activity change, negative = inhibition": "inactive: 2.03%"}, {"smiles": "CC1(C)CC(=O)C2=C(C1)NC1=C(C(=O)c3ccccc31)C2c1ccccc1", "note": "(configuration not stated)", "Potency": "inconclusive: 10.4 µM [inhibitor, partial curve, poor fit]"}, {"smiles": "COc1ccccc1NC(=O)c1cccc(NC(=O)c2ccco2)c1", "Potency": "inconclusive: 18.5 µM [inhibitor, single point]"}, {"smiles": "Cc1ccc(NC(=O)c2cnn(-c3ccccc3)c2C)c(C)c1", "activity change, negative = inhibition": "inactive: 140%"}, {"smiles": "CC(C)(C)c1cc([N+](=O)[O-])cc(C(C)(C)C)c1O", "activity change, negative = inhibition": "inactive: -22.3%"}, {"smiles": "CCN(CC(=O)Nc1cc(S(=O)(=O)N2CCOCC2)ccc1C)Cc1ccccc1", "Potency": "inconclusive: 10.4 µM [inhibitor, single point]"}, {"smiles": "CCCCCOP(=O)(c1ccccc1)c1ccccc1", "Potency": "active: 9.28 µM"}, {"smiles": "O=C(NCCN1CCOCC1)c1cccc(S(=O)(=O)Nc2ccc(F)cc2)c1", "Potency": "inconclusive: 7.38 µM [inhibitor, partial curve, poor fit]"}, {"smiles": "COc1ccc2c(CN(C)c3ccccc3)cc(=O)oc2c1", "Potency": "inconclusive: 13.1 µM [inhibitor, partial curve, poor fit]"}, {"smiles": "c1n[nH]c(NCc2ccc3c(c2)OCO3)n1", "activity change, negative = inhibition": "inactive: 2.18% [at 5.75 µM]"}, {"smiles": "Cn1nc(C(F)(F)F)c2cc(C(=O)Nc3ccc(F)c(Cl)c3)sc21", "Potency": "active: 2.08 µM"}, {"smiles": "COc1cc(OC)c(-c2nnc3n(CCc4ccccc4)c(=O)c4ccccc4n23)cc1OC", "Potency": "inconclusive: 5.22 µM [inhibitor, partial curve, poor fit]"}, {"smiles": "CN1CCCN(Cc2ccccc2Br)CC1", "Potency": "inconclusive: 18.5 µM [inhibitor, single point]"}, {"smiles": "CCC1CCCCN1CCCNC(=O)c1nn(C)c2c1CS(=O)(=O)c1ccccc1-2", "note": "(configuration not stated)", "activity change, negative = inhibition": "inactive: 13%"}, {"smiles": "COc1ccc(S(=O)(=O)N(C)C)cc1NC(=O)Cc1c[nH]c2ccccc12", "Potency": "inconclusive: 0.262 µM [inhibitor, full curve, poor fit]"}, {"smiles": "CC(=O)Nc1ccc(OCc2cnc(Cl)s2)cc1", "activity change, negative = inhibition": "inactive: -12.6%"}, {"smiles": "COc1ccc(C(NC(=O)/C=C\\c2ccco2)c2ccc(OC)c(OC)c2)cc1", "note": "(configuration not stated)", "Potency": "inconclusive: 13.1 µM [inhibitor, single point]"}, {"smiles": "COc1cccc(CNc2ccc(F)c(Cl)c2)c1O", "activity change, negative = inhibition": "inactive: -1.6%"}, {"smiles": "CCOc1ccccc1N1CCN(C(=O)c2cc3c(s2)CCC3)CC1", "Potency": "inconclusive: 8.28 µM [inhibitor, partial curve, poor fit]"}, {"smiles": "O=C(O)c1ccc(N=C2NC(=O)C(CO)(CO)S2)cc1", "Potency": "inconclusive: 18.5 µM [inhibitor, single point]"}, {"smiles": "O=C(O)c1cccc2c1C(=O)N(Cc1ccncc1)C2", "Potency": "inconclusive: 18.5 µM [inhibitor, single point]"}, {"smiles": "Cc1cccc(NC(=O)N2CCCc3ccccc32)c1C", "activity change, negative = inhibition": "inactive: 7.56%"}, {"smiles": "Cc1ccccc1-c1nnn(CC(=O)N2CCN(C(=O)c3ccco3)CC2)n1", "activity change, negative = inhibition": "inactive: -3.1%"}, {"smiles": "CCN(CC(=O)Nc1ccc(OC)cc1)C(=O)c1ccc(Cl)c(S(=O)(=O)N2CCCC2)c1", "Potency": "inconclusive: 16.5 µM [inhibitor, partial curve, poor fit]"}, {"smiles": "O=C1CCCc2ccccc2N1Cc1cccc(F)c1", "activity change, negative = inhibition": "inactive: -3.05%"}, {"smiles": "CN(CC(=O)NC1CCCCCC1)S(=O)(=O)c1ccc(F)cc1", "activity change, negative = inhibition": "inactive: 42.5%"}, {"smiles": "Cc1ccc(/C=C2/Sc3ccc(C(=O)NCCN4CCOCC4)cc3NC2=O)cc1", "Potency": "inconclusive: 5.86 µM [inhibitor, partial curve]"}, {"smiles": "O=S(=O)(CCC1CCCCN1)c1ccccc1", "note": "(configuration not stated)", "activity change, negative = inhibition": "inactive: 19.3%"}, {"smiles": "COc1cc(C(=O)Nc2ccc3c(c2)OCCO3)ccc1OC(C)C", "Potency": "inconclusive: 13.1 µM [inhibitor, partial curve]"}, {"smiles": "COC(=O)c1ccc(CSc2ccc3nnc(-c4cccnc4)n3n2)o1", "activity change, negative = inhibition": "inactive: 10.1%"}, {"smiles": "CC(C)Cn1c(N)c(C(=O)COC(=O)c2cnc(Cl)c(Cl)c2)c(=O)n(C)c1=O", "activity change, negative = inhibition": "inactive: 20.2%"}, {"smiles": "Cc1ccc(S(=O)(=O)N2CCCC2)cc1C(=O)NCc1ccccc1CN1CCCC1", "Potency": "inconclusive: 13.1 µM [inhibitor, single point]"}, {"smiles": "O=C(CNC(=O)C1CCCCC1)Nc1ccc(F)c(Cl)c1", "Potency": "inconclusive: 2.94 µM [inhibitor, full curve, poor fit]"}, {"smiles": "CC(C)NC(=O)c1onc(CSc2nc3ccccc3[nH]2)c1C(=O)NC(C)C", "activity change, negative = inhibition": "inactive: 0.0308%"}, {"smiles": "COc1ccc2ccccc2c1C1NC(=O)NC(C)=C1[N+](=O)[O-]", "note": "(configuration not stated)", "Potency": "inconclusive: 10.4 µM [inhibitor, partial curve]"}, {"smiles": "Cc1ccc(C(=O)NCCCN2CCOCC2)c(Cl)c1", "Potency": "inconclusive: 11.7 µM [inhibitor, partial curve, poor fit]"}, {"smiles": "CC(=O)c1c(CC(=O)O)[nH]n(-c2nc3ccccc3s2)c1=O", "activity change, negative = inhibition": "inactive: 4.39%"}, {"smiles": "COc1ccc(NC(=S)N2CCN(S(=O)(=O)c3ccccc3)CC2)cc1OC", "Potency": "inconclusive: 0.928 µM [inhibitor, partial curve, poor fit]"}, {"smiles": "Cc1cc(F)ccc1S(=O)(=O)N1CCCOC1CNC(=O)C(=O)NCCc1ccccc1", "note": "(configuration not stated)", "Potency": "inconclusive: 18.5 µM [inhibitor, single point]"}, {"smiles": "CCSC1=C(C#N)C(c2cccc(Br)c2)CC(=O)N1", "note": "(configuration not stated)", "activity change, negative = inhibition": "inactive: 13.1%"}, {"smiles": "O=C(Nc1ccc(N2CCCC2)cc1)c1cc2ccccc2o1", "Potency": "inconclusive: 13.1 µM [inhibitor, single point]"}, {"smiles": "CN(C)c1ccc(C(c2ccc(N(C)C)cc2)c2ccc([N+](=O)[O-])cc2)cc1", "Potency": "active: 11.7 µM"}, {"smiles": "Cc1ccccc1OCC(=O)N/N=C/c1cccc(Oc2ccc([N+](=O)[O-])cc2[N+](=O)[O-])c1", "Potency": "active: 1.31 µM"}, {"smiles": "O=C(N/N=C/c1ccc2c(c1)OCO2)C(O)c1ccccc1", "note": "(configuration not stated)", "Potency": "inconclusive: 18.5 µM [inhibitor, single point]"}, {"smiles": "CN(Cc1ccco1)C(=O)C1CCCN(c2ncnc3c2nc2n3CCCCC2)C1", "note": "(configuration not stated)", "Potency": "inconclusive: 18.5 µM [inhibitor, partial curve, poor fit]"}, {"smiles": "CC(OC(=O)c1cccc(-n2cnnn2)c1)c1nc2ccccc2c(=O)[nH]1", "note": "(configuration not stated)", "Potency": "inconclusive: 18.5 µM [inhibitor, single point]"}, {"smiles": "O=c1[nH]c2ccc(NC(=S)NCCc3ccccc3)cc2[nH]1", "Potency": "inconclusive: 10.4 µM [inhibitor, single point]"}, {"smiles": "COC(=O)C(CC(=O)c1ccc(Br)cc1)n1ccnc1", "note": "(configuration not stated)", "activity change, negative = inhibition": "inactive: -30%"}, {"smiles": "CCOc1ccc2nc(NC(=O)CS(=O)(=O)c3ccccc3)sc2c1", "Potency": "active: 5.22 µM"}, {"smiles": "COc1cc(C(C)=O)ccc1OCc1cc(C(=O)N2CCSCC2)no1", "Potency": "inconclusive: 11.7 µM [inhibitor, partial curve, poor fit]"}, {"smiles": "COc1ccc2c3c([nH]c2c1)[C@H]1C[C@H]2[C@H](C[C@@H](O)[C@H](OC)[C@H]2C(=O)O)CN1CC3", "activity change, negative = inhibition": "inactive: -21.4%"}, {"smiles": "CC(=O)Nc1ccc(CN2CCN(CC(C)C)C(CCO)C2)cc1", "note": "(configuration not stated)", "Potency": "inconclusive: 16.5 µM [inhibitor, single point]"}, {"smiles": "Cc1c(CCC(=O)NCCCn2ccnc2)c(=O)oc2c(C)c3oc4c(c3cc12)CCCC4", "Potency": "inconclusive: 18.5 µM [inhibitor, single point]"}, {"smiles": "CC1Cc2ccccc2N1C(=O)C1CCCN(S(=O)(=O)c2cccc3cccnc23)C1", "note": "(configuration not stated)", "Potency": "inconclusive: 14.7 µM [inhibitor, single point]"}, {"smiles": "Cc1ccc(-n2nc3c(c2NC(=O)c2cccs2)CSC3)cc1", "Potency": "inconclusive: 18.5 µM [inhibitor, single point]"}, {"smiles": "Cc1cc(NC(=O)C(C)Oc2ccc(Cl)cc2Cl)n(-c2ccccc2)n1", "note": "(configuration not stated)", "Potency": "active: 5.86 µM"}, {"smiles": "CCOC(=O)CCc1c(C)c(C#N)c2nc3ccccc3n2c1-n1cnc2ccccc21", "Potency": "inconclusive: 5.86 µM [inhibitor, partial curve, poor fit]"}, {"smiles": "CC(C)(C)Nc1nc(Cl)nc(NC2CCCCC2)n1", "Potency": "active: 13.1 µM"}, {"smiles": "Clc1ccc(CNc2ccccc2NCc2ccc(Cl)nc2)cn1", "activity change, negative = inhibition": "inactive: 38.1%"}, {"smiles": "CCOc1cccc(=O)c2c(C)n(C)c(C)c12", "Potency": "inconclusive: 10.4 µM [inhibitor, single point]"}, {"smiles": "O=C(CSc1c(F)c(F)cc(F)c1F)Nc1ccc(C2SCCS2)cc1", "activity change, negative = inhibition": "inactive: -11.7%"}, {"smiles": "O=C1/C(=C/c2ccccc2)Nc2ccccc21", "Potency": "active: 3.7 µM"}, {"smiles": "O=C(O)C1CC(O)CN1S(=O)(=O)c1cccs1", "note": "(configuration not stated)", "Potency": "inconclusive: 0.233 µM [inhibitor, full curve, poor fit]"}, {"smiles": "Cn1c(N)c(C(=O)CSc2nc3ccccc3n2-c2ccccc2)c(=O)n(C)c1=O", "Potency": "inconclusive: 14.7 µM [inhibitor, partial curve, poor fit]"}, {"smiles": "CCCCC(=O)Nc1cccc(-c2nc3ncccc3o2)c1C", "activity change, negative = inhibition": "inactive: -16.8%"}, {"smiles": "COc1ccc(C(CNC(=O)COc2cccc(C)c2)N2CCCC2)cc1", "note": "(configuration not stated)", "Potency": "active: 13.1 µM"}, {"smiles": "COc1ccccc1CC1(C)NC(=O)N(CC(=O)N2CCc3ccccc3C2)C1=O", "note": "(configuration not stated)", "Potency": "inconclusive: 8.28 µM [inhibitor, single point]"}]}]}
